The values below come from publication PMC9810639.

This experiment concerns the target T1, CIPK9 fused with cLUC (UniProt Q9MAM1).
T1 sequence: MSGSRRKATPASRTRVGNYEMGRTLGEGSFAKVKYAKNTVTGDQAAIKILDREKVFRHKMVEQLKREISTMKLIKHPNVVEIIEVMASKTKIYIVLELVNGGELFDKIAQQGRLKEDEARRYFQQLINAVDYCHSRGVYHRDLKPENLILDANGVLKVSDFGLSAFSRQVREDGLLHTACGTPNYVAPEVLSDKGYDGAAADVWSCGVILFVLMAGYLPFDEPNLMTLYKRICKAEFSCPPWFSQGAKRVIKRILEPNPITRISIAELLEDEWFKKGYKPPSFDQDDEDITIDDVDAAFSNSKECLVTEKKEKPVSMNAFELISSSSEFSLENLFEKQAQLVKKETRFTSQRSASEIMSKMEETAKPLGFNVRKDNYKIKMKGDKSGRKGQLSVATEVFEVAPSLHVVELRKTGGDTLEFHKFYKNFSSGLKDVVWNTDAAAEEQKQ
Kind of experiment: split reporter; split-luciferase complementation (LUC) imaging in N. benthamiana leaves co-infiltrated with Agrobacterium GV3101 carrying pairs of nLUC and cLUC constructs plus p19; leaves sprayed with 1 mM D-luciferin 36-48 h after infiltration, CCD imaging.

No constants are given. Whether binding was seen depends on the method and setting. Binding seen in cells or lysates may run through a third protein. Some entries that bind do so weakly or less than the wild type. Tags and fused reporters may be left off the sequences shown.

Consider “CBL2 fused to nLUC (from UniProt Q8LAS7 1-226)”, for which the binding entry is listed as “binds”.
